# Test results reported in publication PMC12322997, “Asxl1 regulates optic cup development through interaction with Lhx2 and epigenetic modulation of Wnt signaling” (Animal Cells and Systems, 2025).
# No constants are given. Whether binding was seen depends on the method and setting. Binding seen in cells or lysates may run through a third protein. Some binding calls cover weakened binding; strength is not graded here. For some assays here: Tags and fused reporters may be left off the sequences shown.
# T1: GFP-tagged mAsxl1 C-terminus (aa 1193-1514) (mouse) (UniProt P59598)
# T1 sequence: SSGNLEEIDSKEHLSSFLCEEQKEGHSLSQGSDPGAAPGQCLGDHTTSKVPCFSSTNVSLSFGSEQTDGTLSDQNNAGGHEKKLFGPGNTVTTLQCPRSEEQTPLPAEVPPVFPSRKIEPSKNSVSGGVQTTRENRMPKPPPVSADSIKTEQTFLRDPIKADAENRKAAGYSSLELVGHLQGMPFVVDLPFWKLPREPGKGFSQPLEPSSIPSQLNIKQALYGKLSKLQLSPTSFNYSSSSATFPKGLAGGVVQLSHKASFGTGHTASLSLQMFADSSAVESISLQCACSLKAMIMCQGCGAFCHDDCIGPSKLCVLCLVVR
# Columns and labels:
# [1] = molecular target: T1, GFP-tagged mAsxl1 C-terminus (aa 1193-1514) (mouse); assay: co-IP; domain mapping with GFP-tagged mAsxl1 forms and Flag-tagged hLHX2 forms; HEK293 cell lysates (1-2 mg), anti-Flag or anti-GFP, protein A/G-agarose, Western blot
# [2] = molecular target: Additional sex combs-like 1 (Asxl1), endogenous (mouse (endogenous in N2a)) (UniProt P59598); assay: co-IP; endogenous proteins in N2a neuroblastoma cell lysate; immunocomplexes on protein A/G-agarose, Western blot
binding [1],binding [2],Binder
binds,–,"Flag-tagged hLhx2 LIM domain (aa 1-174) (domain or fragment, UniProt P50458 1-174) MLFHSLSGPEVHGVIDEMDRRAKSEAPAISSAIDRGDTETTMPSISSDRAALCAGCGGKISDRYYLLAVDKQWHMRCLKCCECKLNLESELTCFSKDGSIYCKEDYYRRFSVQRCARCHLGISASEMVMRARDLVYHLNCFTCTTCNKMLTTGDHFGMKDSLVYCRLHFEALLQ"
–,binds,"LIM homeobox 2 (Lhx2), endogenous (protein, UniProt Q9Z0S2 1-406) MLFHSLSGPEVHGVIDEMDRRAKSEAPAISSAIDRGDTETTMPSISSDRAALCAGCGGKISDRYYLLAVDKQWHMRCLKCCECKLNLESELTCFSKDGSIYCKEDYYRRFSVQRCARCHLGISASEMVMRARDLVYHLNCFTCTTCNKMLTTGDHFGMKDSLVYCRLHFEALLQGEYPAHFNHADVAAAAAAAAAAKSAGLGSAGANPLGLPYYNGVGTVQKGRPRKRKSPGPGADLAAYNAALSCNENDAEHLDRDQPYPSSQKTKRMRTSFKHHQLRTMKSYFAINHNPDAKDLKQLAQKTGLTKRVLQVWFQNARAKFRRNLLRQENTGVDKTSDATLQTGTPSGPASELSNASLSPSSTPTTLTDLTSPTLPTVTSVLTSVPGNLEGHEPHSPSQTTLTNLF"
